ChEMBL document CHEMBL4316593 (Eur J Med Chem, 2019)
The source gives many values for each of these; only a part stands here.

Experiments:
Type in all cases: cell-based
Settings in all cases: U-87MG ATCC
[1] = Inhibition of RTK/PI3K/AKT/mTOR signaling in human U87 cells assessed as down regulation of TEP1 gene expression at cytotoxic IC50 measured after 48 hrs relative to control
[2] = Inhibition of RTK/PI3K/AKT/mTOR signaling in human U87 cells assessed as up regulation of von Willebrand factor A domain containing 7 gene expression at cytotoxic IC50 measured after 48 hrs relative to control
[3] = Inhibition of RTK/PI3K/AKT/mTOR signaling in human U87 cells assessed as up regulation of GNL3 gene expression at cytotoxic IC50 measured after 48 hrs relative to control
[4] = Inhibition of RTK/PI3K/AKT/mTOR signaling in human U87 cells assessed as up regulation of tight junction protein 3 gene expression at cytotoxic IC50 measured after 48 hrs relative to control
[5] = Inhibition of RTK/PI3K/AKT/mTOR signaling in human U87 cells assessed as up regulation of TPI1 gene expression at cytotoxic IC50 measured after 48 hrs relative to control
[6] = Inhibition of RTK/PI3K/AKT/mTOR signaling in human U87 cells assessed as down regulation of DHX36 gene expression at cytotoxic IC50 measured after 48 hrs relative to control
[7] = Inhibition of RTK/PI3K/AKT/mTOR signaling in human U87 cells assessed as up regulation of inhibitor of growth family member 5 gene expression at cytotoxic IC50 measured after 48 hrs relative to control
[8] = Inhibition of RTK/PI3K/AKT/mTOR signaling in human U87 cells assessed as up regulation of dickkopf WNT signaling pathway inhibitor 1 gene expression at cytotoxic IC50 measured after 48 hrs relative to control
[9] = Inhibition of RTK/PI3K/AKT/mTOR signaling in human U87 cells assessed as down regulation of MTFR2 gene expression at cytotoxic IC50 measured after 48 hrs relative to control
[10] = Inhibition of RTK/PI3K/AKT/mTOR signaling in human U87 cells assessed as up regulation of NOVA alternative splicing regulator 2 gene expression at cytotoxic IC50 measured after 48 hrs relative to control
[11] = Inhibition of RTK/PI3K/AKT/mTOR signaling in human U87 cells assessed as up regulation of chromosome 11 open reading frame 54 gene expression at cytotoxic IC50 measured after 48 hrs relative to control
[12] = Inhibition of RTK/PI3K/AKT/mTOR signaling in human U87 cells assessed as down regulation of CCSER2 gene expression at cytotoxic IC50 measured after 48 hrs relative to control
[13] = Inhibition of RTK/PI3K/AKT/mTOR signaling in human U87 cells assessed as up regulation of regulator of G-protein signaling 10 gene expression at cytotoxic IC50 measured after 48 hrs relative to control
[14] = Inhibition of RTK/PI3K/AKT/mTOR signaling in human U87 cells assessed as down regulation of RABGGTB gene expression at cytotoxic IC50 measured after 48 hrs relative to control
[15] = Inhibition of RTK/PI3K/AKT/mTOR signaling in human U87 cells assessed as down regulation of ZNF100 gene expression at cytotoxic IC50 measured after 48 hrs relative to control
[16] = Inhibition of RTK/PI3K/AKT/mTOR signaling in human U87 cells assessed as up regulation of GNAI1 gene expression at cytotoxic IC50 measured after 48 hrs relative to control
[17] = Inhibition of RTK/PI3K/AKT/mTOR signaling in human U87 cells assessed as down regulation of HUS1 gene expression at cytotoxic IC50 measured after 48 hrs relative to control
[18] = Inhibition of RTK/PI3K/AKT/mTOR signaling in human U87 cells assessed as down regulation of CREBBP gene expression at cytotoxic IC50 measured after 48 hrs relative to control
[19] = Inhibition of RTK/PI3K/AKT/mTOR signaling in human U87 cells assessed as down regulation of TDRD7 gene expression at cytotoxic IC50 measured after 48 hrs relative to control
[20] = Inhibition of RTK/PI3K/AKT/mTOR signaling in human U87 cells assessed as down regulation of SEC23B gene expression at cytotoxic IC50 measured after 48 hrs relative to control
[21] = Inhibition of RTK/PI3K/AKT/mTOR signaling in human U87 cells assessed as up regulation of preferentially expressed antigen in melanoma gene expression at cytotoxic IC50 measured after 48 hrs relative to control
[22] = Inhibition of RTK/PI3K/AKT/mTOR signaling in human U87 cells assessed as down regulation of SMARCA2 gene expression at cytotoxic IC50 measured after 48 hrs relative to control
[23] = Inhibition of RTK/PI3K/AKT/mTOR signaling in human U87 cells assessed as down regulation of ISOC1 gene expression at cytotoxic IC50 measured after 48 hrs relative to control
[24] = Inhibition of RTK/PI3K/AKT/mTOR signaling in human U87 cells assessed as up regulation of OPA3, outer mitochondrial membrane lipid metabolism regulator gene expression at cytotoxic IC50 measured after 48 hrs relative to control
[25] = Inhibition of RTK/PI3K/AKT/mTOR signaling in human U87 cells assessed as down regulation of ACADVL gene expression at cytotoxic IC50 measured after 48 hrs relative to control
[26] = Inhibition of RTK/PI3K/AKT/mTOR signaling in human U87 cells assessed as up regulation of NmrA like redox sensor 1 gene expression at cytotoxic IC50 measured after 48 hrs relative to control
[27] = Inhibition of RTK/PI3K/AKT/mTOR signaling in human U87 cells assessed as up regulation of FCH domain only 1 gene expression at cytotoxic IC50 measured after 48 hrs relative to control
[28] = Inhibition of RTK/PI3K/AKT/mTOR signaling in human U87 cells assessed as down regulation of GNPDA1 gene expression at cytotoxic IC50 measured after 48 hrs relative to control
[29] = Inhibition of RTK/PI3K/AKT/mTOR signaling in human U87 cells assessed as down regulation of SLBP gene expression at cytotoxic IC50 measured after 48 hrs relative to control
[30] = Inhibition of RTK/PI3K/AKT/mTOR signaling in human U87 cells assessed as down regulation of RNF4 gene expression at cytotoxic IC50 measured after 48 hrs relative to control
[31] = Inhibition of RTK/PI3K/AKT/mTOR signaling in human U87 cells assessed as down regulation of POT1 gene expression at cytotoxic IC50 measured after 48 hrs relative to control
[32] = Inhibition of RTK/PI3K/AKT/mTOR signaling in human U87 cells assessed as down regulation of RNF139 gene expression at cytotoxic IC50 measured after 48 hrs relative to control

Question: For `CC(=O)C(=NNc1ccccc1C#N)C(C)=O`, which log2FC [1] is on record?
Answer: Its log2FC is -0.974.

Question: And the log2FC [2]?
Answer: The log2FC was 1.25.

Question: And the log2FC [3]?
Answer: The log2FC was 0.611.

Question: What about the log2FC [4] of the same compound?
Answer: Its log2FC is 1.12.

Question: What about the log2FC [5] of the same compound?
Answer: Its log2FC is 0.457.

Question: And the log2FC [6]?
Answer: Its log2FC is -0.767.

Question: What about the log2FC [7] of the same compound?
Answer: The log2FC was 0.856.

Question: What about the log2FC [8] of the same compound?
Answer: Its log2FC is 0.743.

Question: What about the log2FC [9] of the same compound?
Answer: The log2FC was -1.5.

Question: What about the log2FC [10] of the same compound?
Answer: The log2FC was 1.55.

Question: And the log2FC [11]?
Answer: Its log2FC is 0.898.

Question: And the log2FC [12]?
Answer: The log2FC was -0.609.

Question: What about the log2FC [13] of the same compound?
Answer: The log2FC was 0.791.

Question: What about the log2FC [14] of the same compound?
Answer: Its log2FC is -0.414.

Question: And the log2FC [15]?
Answer: Its log2FC is -1.37.

Question: And the log2FC [16]?
Answer: The log2FC was 0.439.

Question: And the log2FC [17]?
Answer: Its log2FC is -1.22.

Question: What about the log2FC [18] of the same compound?
Answer: Its log2FC is -0.864.

Question: And the log2FC [19]?
Answer: The log2FC was -0.805.

Question: What about the log2FC [20] of the same compound?
Answer: The log2FC was -0.776.

Question: What about the log2FC [21] of the same compound?
Answer: Its log2FC is 1.02.

Question: And the log2FC [22]?
Answer: Its log2FC is -2.4.

Question: What about the log2FC [23] of the same compound?
Answer: The log2FC was -1.14.

Question: And the log2FC [24]?
Answer: Its log2FC is 1.22.

Question: And the log2FC [25]?
Answer: The log2FC was -0.444.

Question: What about the log2FC [26] of the same compound?
Answer: Its log2FC is 0.8.

Question: What about the log2FC [27] of the same compound?
Answer: The log2FC was 1.12.

Question: And the log2FC [28]?
Answer: The log2FC was -0.61.

Question: What about the log2FC [29] of the same compound?
Answer: The log2FC was -0.543.

Question: And the log2FC [30]?
Answer: Its log2FC is -0.491.

Question: And the log2FC [31]?
Answer: Its log2FC is -0.696.

Question: What about the log2FC [32] of the same compound?
Answer: Its log2FC is -0.727.
